Reference: patent publication US20020068744A1, “Substituted-triazolopyrimidines as anticancer agents” (American Home Products Corporation, priority 2000, published 2002)
The name of at least one read-out is uncertain.

System: HeLa human cervical carcinoma cell line
Test: MTS cytotoxicity with HeLa cells
Assay type: cell-based
Settings: three days
Excerpt: This standard pharmacological test procedure identifies representative examples of substituted triazolopyrimidine compounds of the invention, which further includes compounds of Formula (I), which kill various human cancer cell lines. The test is based on the conversion by viable cells, but not by dead cells, of the tetrazolium salt, MTS, into a water-soluble colored formazan which is detected by spectrophotometry.
In the first cytotoxicity test, representative compounds of the invention were tested with the HeLa human cervical carcinoma cell line at a single concentration. HeLa cells (ATCC CCL2.2) were routinely maintained by twice-weekly subculture in fresh medium. […]
For assay, HeLa cells were harvested by trypsinization, washed, counted and distributed to wells of 96-well flat-bottom microtiter plates at 1000 cells per well in 100 μl of medium. […]
After three days of culture with test compounds (day 5 overall), the MTS assay was done on all wells of the plates. Twenty μl of the combined MTS/PMS reagent (Promega “CellTiter 96 Aqueous Non-Radioactive Cell Proliferation Assay, ” catalog no. G5421; see Technical Bulletin No. 169, Revised 9/96) were added to each well with a repeating pipettor, and the plates were returned to the 37° incubator for 2 hr before recording the absorbance of each well at 490 nm using an ELISA plate reader. […]

Structure (SMILES): C[C@@H](Nc1c(-c2c(F)cc(F)cc2F)c(Cl)nc2ncnn12)C(F)(F)F [Example 170, 5-chloro-N-[(1R)-2,2,2-trifluoro-1-methylethyl]-6-(2,4,6-trifluorophenyl)[1,2,4]triazolo[1,5-a]pyrimidin-7-amine]
- Percent of Control at 10 ug/ml: 22.6% of Control
